Measurements taken from the supplement of paper PMC10849652.
The list shows a part of the results.

Sequences of proteins named here, by UniProt entry; tags and fusion partners are left off. A change or cut given only in a name is not applied to a line headed by its entry.
UniProt Q9NPA8: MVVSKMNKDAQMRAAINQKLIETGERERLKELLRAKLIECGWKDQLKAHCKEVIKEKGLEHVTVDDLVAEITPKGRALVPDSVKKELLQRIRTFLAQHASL
UniProt Q9NYP7: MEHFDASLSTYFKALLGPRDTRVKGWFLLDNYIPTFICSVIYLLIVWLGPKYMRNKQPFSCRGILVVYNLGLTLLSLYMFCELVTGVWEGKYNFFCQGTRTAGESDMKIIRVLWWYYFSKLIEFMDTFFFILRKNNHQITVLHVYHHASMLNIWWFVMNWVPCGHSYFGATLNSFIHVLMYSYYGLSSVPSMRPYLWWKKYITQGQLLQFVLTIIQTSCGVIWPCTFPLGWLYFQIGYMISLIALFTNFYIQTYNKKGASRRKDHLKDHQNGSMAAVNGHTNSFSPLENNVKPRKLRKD
UniProt P55010, whole entry, looked up: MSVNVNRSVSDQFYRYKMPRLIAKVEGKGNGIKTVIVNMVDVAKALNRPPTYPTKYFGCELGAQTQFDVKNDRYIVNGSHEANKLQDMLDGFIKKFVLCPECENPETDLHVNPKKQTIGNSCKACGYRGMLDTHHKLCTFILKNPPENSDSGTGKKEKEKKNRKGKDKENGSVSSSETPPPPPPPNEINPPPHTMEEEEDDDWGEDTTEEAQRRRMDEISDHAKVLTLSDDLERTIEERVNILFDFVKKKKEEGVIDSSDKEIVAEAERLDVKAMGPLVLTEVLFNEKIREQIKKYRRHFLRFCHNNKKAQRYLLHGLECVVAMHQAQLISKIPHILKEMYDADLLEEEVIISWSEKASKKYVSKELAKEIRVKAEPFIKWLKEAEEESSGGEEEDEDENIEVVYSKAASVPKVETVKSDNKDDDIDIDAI
UniProt O43402: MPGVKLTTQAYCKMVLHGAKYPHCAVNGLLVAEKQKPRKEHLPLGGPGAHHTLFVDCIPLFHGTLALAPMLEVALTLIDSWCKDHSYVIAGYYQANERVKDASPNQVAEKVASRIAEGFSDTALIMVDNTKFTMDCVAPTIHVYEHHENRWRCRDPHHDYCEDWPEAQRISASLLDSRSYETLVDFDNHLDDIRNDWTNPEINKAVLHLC
UniProt Q08426: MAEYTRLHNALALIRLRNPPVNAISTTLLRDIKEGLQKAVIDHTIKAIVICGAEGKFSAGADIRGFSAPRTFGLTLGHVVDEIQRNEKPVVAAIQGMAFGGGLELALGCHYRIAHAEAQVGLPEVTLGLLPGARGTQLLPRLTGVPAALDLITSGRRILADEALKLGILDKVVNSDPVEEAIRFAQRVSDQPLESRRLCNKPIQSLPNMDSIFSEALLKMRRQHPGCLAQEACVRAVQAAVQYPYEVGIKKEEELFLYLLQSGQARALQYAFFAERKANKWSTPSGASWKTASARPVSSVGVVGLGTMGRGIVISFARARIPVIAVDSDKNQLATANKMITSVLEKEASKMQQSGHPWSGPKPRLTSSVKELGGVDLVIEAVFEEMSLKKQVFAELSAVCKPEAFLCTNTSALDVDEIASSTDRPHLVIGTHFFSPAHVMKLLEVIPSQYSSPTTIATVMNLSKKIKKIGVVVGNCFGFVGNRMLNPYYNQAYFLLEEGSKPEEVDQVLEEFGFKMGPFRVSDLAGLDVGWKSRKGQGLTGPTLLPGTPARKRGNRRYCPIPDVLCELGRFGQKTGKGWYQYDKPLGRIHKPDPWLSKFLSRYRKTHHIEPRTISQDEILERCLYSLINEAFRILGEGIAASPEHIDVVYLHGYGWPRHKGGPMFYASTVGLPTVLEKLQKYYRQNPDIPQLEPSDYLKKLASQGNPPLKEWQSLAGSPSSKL
UniProt P23588, whole entry, looked up: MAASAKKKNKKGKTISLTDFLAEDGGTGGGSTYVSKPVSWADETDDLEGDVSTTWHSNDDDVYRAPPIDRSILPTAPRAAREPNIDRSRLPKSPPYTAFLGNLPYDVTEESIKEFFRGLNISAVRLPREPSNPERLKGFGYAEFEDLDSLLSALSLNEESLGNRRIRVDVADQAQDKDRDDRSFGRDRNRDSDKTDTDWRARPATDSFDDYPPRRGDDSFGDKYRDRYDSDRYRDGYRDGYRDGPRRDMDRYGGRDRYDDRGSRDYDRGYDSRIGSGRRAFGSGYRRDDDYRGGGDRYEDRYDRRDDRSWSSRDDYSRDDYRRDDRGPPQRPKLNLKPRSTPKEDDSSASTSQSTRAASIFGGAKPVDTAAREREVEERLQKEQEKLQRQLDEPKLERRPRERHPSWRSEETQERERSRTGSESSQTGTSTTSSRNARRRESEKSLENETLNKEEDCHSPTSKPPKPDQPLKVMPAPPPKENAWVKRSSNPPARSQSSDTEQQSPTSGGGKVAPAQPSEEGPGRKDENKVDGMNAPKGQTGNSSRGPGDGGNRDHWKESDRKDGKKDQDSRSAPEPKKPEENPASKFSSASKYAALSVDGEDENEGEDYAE
UniProt P60842, whole entry, looked up: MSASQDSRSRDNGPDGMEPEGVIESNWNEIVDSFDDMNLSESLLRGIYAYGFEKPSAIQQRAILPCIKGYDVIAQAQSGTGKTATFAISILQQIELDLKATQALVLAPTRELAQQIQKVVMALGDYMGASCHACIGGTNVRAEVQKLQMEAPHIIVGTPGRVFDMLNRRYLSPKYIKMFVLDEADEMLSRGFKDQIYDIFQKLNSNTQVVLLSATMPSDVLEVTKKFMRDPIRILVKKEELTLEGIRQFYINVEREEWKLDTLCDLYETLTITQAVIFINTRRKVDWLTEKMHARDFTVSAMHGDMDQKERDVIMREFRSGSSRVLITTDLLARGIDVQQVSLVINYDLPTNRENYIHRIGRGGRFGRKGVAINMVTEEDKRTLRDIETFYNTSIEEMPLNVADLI
UniProt P29692: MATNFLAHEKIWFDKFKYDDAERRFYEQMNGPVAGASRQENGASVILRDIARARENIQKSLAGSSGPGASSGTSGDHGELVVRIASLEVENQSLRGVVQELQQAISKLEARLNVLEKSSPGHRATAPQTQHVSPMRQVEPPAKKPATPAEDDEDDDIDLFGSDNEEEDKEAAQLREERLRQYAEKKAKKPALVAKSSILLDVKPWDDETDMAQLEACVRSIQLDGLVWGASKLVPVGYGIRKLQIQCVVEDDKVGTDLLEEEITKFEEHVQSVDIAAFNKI
UniProt P24534: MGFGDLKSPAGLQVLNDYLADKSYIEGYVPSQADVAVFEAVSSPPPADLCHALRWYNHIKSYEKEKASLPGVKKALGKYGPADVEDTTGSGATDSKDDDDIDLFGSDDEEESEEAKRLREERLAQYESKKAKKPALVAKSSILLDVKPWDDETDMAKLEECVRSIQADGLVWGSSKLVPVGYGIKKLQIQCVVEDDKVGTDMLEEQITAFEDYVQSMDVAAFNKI
UniProt Q96EB1: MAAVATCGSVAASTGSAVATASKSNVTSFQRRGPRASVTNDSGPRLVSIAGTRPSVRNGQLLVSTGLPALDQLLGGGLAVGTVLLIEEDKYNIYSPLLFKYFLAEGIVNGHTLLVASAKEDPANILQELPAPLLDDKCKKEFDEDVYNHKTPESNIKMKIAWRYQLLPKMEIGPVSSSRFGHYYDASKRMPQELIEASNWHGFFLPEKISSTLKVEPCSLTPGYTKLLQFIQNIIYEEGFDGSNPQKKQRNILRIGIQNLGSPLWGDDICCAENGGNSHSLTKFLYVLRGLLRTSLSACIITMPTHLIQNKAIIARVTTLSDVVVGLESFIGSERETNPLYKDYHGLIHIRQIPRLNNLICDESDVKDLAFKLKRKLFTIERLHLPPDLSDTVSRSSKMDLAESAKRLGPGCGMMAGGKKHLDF
UniProt Q9UHY7: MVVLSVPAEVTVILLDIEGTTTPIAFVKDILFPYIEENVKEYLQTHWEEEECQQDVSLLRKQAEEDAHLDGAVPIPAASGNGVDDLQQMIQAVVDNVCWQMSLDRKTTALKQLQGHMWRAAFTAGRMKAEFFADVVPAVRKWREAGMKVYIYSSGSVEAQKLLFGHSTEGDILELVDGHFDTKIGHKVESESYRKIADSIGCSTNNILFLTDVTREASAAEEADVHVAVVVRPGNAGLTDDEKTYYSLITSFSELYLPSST
UniProt Q32P44: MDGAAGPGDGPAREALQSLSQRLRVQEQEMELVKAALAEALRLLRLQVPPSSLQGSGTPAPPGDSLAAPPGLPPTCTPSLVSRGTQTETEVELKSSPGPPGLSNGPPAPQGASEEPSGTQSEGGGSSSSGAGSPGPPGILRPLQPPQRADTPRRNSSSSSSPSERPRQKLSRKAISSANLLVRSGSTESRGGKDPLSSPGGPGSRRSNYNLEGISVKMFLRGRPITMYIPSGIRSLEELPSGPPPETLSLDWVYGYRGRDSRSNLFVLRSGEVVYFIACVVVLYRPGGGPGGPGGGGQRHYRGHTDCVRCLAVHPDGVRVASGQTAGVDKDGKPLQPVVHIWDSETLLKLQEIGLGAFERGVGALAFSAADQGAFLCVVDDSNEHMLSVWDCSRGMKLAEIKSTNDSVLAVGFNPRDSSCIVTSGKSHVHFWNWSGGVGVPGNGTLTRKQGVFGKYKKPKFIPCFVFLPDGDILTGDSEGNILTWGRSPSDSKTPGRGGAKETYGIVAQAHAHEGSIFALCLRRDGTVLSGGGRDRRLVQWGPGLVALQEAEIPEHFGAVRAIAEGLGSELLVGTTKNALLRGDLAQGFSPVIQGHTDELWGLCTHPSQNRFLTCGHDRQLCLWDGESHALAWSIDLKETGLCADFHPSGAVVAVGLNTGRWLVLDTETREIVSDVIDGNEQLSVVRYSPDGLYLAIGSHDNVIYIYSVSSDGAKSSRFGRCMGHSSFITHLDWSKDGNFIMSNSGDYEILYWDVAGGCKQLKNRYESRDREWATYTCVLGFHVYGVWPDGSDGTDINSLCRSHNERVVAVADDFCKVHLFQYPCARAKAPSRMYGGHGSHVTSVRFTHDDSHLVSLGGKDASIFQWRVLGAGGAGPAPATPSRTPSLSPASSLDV
UniProt O15372, whole entry, looked up: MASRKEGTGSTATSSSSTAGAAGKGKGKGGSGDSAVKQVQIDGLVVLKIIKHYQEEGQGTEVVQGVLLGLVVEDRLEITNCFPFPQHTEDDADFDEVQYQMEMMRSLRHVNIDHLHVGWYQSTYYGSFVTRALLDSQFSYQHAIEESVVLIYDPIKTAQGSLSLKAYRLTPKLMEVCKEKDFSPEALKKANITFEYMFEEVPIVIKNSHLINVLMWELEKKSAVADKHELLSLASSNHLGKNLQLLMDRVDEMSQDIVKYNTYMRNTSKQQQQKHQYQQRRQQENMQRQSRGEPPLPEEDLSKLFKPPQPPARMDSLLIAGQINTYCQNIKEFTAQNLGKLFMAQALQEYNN
UniProt Q8TE02: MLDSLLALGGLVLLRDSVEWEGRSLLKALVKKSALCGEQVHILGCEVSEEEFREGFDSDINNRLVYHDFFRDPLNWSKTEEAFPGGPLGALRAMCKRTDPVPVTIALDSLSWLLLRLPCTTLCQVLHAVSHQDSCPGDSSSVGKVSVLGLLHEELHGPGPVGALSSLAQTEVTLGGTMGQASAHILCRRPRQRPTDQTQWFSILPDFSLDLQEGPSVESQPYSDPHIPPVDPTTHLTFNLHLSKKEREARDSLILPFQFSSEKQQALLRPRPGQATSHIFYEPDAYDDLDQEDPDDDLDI
UniProt Q9H223: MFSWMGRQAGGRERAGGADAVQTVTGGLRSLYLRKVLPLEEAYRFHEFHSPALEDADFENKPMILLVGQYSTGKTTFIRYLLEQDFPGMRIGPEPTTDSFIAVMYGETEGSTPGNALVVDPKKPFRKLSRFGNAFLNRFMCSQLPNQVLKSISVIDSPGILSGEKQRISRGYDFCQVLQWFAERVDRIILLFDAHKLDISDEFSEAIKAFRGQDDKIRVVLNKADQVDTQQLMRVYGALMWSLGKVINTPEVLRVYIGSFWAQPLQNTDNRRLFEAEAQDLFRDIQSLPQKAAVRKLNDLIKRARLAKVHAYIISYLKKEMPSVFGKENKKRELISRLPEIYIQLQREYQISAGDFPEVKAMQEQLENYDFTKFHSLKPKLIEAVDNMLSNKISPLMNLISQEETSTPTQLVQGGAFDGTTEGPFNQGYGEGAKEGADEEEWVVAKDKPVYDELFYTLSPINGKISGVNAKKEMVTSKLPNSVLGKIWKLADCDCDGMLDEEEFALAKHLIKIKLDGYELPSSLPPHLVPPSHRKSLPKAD
UniProt Q13347, whole entry, looked up: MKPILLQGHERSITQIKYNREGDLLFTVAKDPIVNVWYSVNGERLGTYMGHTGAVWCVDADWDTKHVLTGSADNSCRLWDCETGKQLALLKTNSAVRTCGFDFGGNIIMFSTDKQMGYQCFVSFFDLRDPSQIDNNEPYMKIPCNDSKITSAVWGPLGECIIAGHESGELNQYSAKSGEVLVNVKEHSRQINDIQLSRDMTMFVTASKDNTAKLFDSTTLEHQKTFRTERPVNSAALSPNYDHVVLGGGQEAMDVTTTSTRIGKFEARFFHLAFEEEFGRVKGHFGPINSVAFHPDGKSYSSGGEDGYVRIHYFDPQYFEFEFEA

compound: NCC(=O)Nc1ccc(-n2nc(C(F)(F)F)cc2-c2ccc3c(ccc4ccccc43)c2)cc1; experiment: log2 fold change, soluble protein after heating vs DMSO (PISA); higher = thermal stabilisation; K562 cells, 10 uM, 30 min; active = over 0.2 and 3.5 SD of the protein, either way, in both replicates (recomputed)
How it was run: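 Soluble protein was defined as the supernatant after 21,000xg for 90 min. It came from K562 cells at 2×10^6 cells/mL given 10 μM compound for 30 min, heated in aliquots for 3 min across 48°C-58°C, pooled, and extracted in PBS with 0.5% NP-40 at 4°C, and was quantified by TMTpro 16plex LC-MS/MS with equalised channel sums. Thermal stability against control samples, from duplicates, is reported as log2 fold change.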

| Target | log2 fold change |
| --- | --- |
| ENY2 (UniProt Q9NPA8) | inactive: -0.009 |
| EGLN1 (UniProt Q9GZT9) | inactive: -0.029 |
| EIF3K (UniProt Q9UBQ5) | inactive: 0.024 |
| EED, A0A5F9ZI63 | inactive: -0.029 |
| ELOVL5 isoform 2 (UniProt Q9NYP7) | inactive: -0.065 |
| ENO1 isoform 2 (UniProt P06733) | inactive: 0.033 |
| EIF5 (UniProt P55010) | inactive: -0.024 |
| EMC8 (UniProt O43402) | inactive: 0.033 |
| EHHADH (UniProt Q08426) | inactive: -0.061 |
| EIF2AK2 (UniProt P19525) | inactive: 0.069 |
| EIF4B (UniProt P23588) | inactive: -0.01 |
| EIF4A3 (UniProt P38919) | inactive: -0.12 |
| EMD (UniProt P50402) | inactive: -0.041 |
| EIF4ENIF1 isoform 3 (UniProt Q9NRA8) | inactive: -0.086 |
| EIF4G2 (UniProt P78344) | inactive: 0.004 |
| EIF4A1 (UniProt P60842) | inactive: -0.044 |
| EEF1D isoform 2 (UniProt P29692) | inactive: -0.105 |

Looked up above:
log2 fold change, EIF3K (UniProt Q9UBQ5) reads inactive: 0.024
log2 fold change, EMC8 (UniProt O43402) reads inactive: 0.033

The results go on.

| Target | log2 fold change |
| --- | --- |
| EEF1B2 (UniProt P24534) | inactive: -0.09 |
| ELP3 (UniProt Q9H9T3) | inactive: 0.012 |
| ENGASE (UniProt Q8NFI3) | inactive: 0.04 |
| ELP4 (UniProt Q96EB1) | inactive: -0.077 |
| ELP4 isoform 3 (UniProt Q96EB1) | inactive: 0.006 |
| ELP6 (UniProt Q0PNE2) | inactive: -0.031 |
| ENOPH1 (UniProt Q9UHY7) | inactive: -0.079 |
| ELOF1 (UniProt P60002) | inactive: 0.082 |
| EI24 (UniProt O14681) | inactive: 0 |
| EIF4A2 isoform 2 (UniProt Q14240) | inactive: -0.04 |
| EML3 isoform 2 (UniProt Q32P44) | inactive: -0.122 |
| EIF3H (UniProt O15372) | inactive: -0.011 |
| EIF5B (UniProt O60841) | inactive: -0.03 |
| ELP5 isoform 4 (UniProt Q8TE02) | inactive: 0 |
| EHD4 (UniProt Q9H223) | inactive: -0.048 |
| EIF3I (UniProt Q13347) | inactive: -0.057 |
